{"source": "patent US20200352184A1", "about": "“Prevention of Postharvest Physiological Deterioration using Sulfur-Donating Compounds” (Apeel Technology, Inc., priority 2017, published 2020)", "key": {"[1]": {"system": "cassava roots", "conditions": "after four days, dry powder dip of cut surface, FIG. 2"}, "[2]": {"system": "cassava roots", "conditions": "powder dip, average of 10 cassava segments, FIG. 5"}}, "note": "Read-outs that look alike come from different tables or passages of the source."}
{"compound": "O.O.O.O.O.O=S([O-])([O-])=S.[Na+].[Na+]", "note": "[sodium thiosulfate, sodium thiosulfate pentahydrate]", "values": [{"measurement": "discoloration (PPD) of treated cut cassava root sections versus untreated", "setting": "[1]", "result": "largely free of such discoloration"}, {"measurement": "discoloration (PPD) of treated cut cassava root sections versus untreated", "setting": "[1]; listed as sodium thiosulfate pentahydrate", "result": "considerably less discoloration"}, {"measurement": "total starch lost", "setting": "[2]; day 4 postharvest", "result": "about 6%"}, {"measurement": "total starch lost", "setting": "[2]; day 4 postharvest, listed as sodium thiosulfate pentahydrate", "result": 6, "unit": "%"}, {"measurement": "total starch lost", "setting": "[2]; day 8 postharvest", "result": "less than 8%"}]}
